In article PMC2996326, “LaeA Control of Velvet Family Regulatory Proteins for Light-Dependent Development and Fungal Cell-Type Specificity” (PLoS Genetics, 2010) one finds binding data, which are given here for 2 molecules.

Amino acid sequences for entries named in this document (tags omitted).
UniProt C8VTS4: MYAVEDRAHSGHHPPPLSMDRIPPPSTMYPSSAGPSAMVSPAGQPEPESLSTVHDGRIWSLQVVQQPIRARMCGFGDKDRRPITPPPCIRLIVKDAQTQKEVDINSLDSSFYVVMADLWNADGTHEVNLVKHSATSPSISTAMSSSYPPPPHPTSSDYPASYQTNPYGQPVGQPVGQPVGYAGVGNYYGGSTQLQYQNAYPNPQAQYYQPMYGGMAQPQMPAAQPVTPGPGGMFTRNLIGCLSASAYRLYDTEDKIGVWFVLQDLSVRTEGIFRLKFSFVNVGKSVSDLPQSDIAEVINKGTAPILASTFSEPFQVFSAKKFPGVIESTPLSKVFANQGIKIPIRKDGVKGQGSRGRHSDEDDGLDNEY

Assay [1] deals with T1, N-EYFP::VosA (Aspergillus nidulans) (UniProt Q5BBX1).
T1 sequence: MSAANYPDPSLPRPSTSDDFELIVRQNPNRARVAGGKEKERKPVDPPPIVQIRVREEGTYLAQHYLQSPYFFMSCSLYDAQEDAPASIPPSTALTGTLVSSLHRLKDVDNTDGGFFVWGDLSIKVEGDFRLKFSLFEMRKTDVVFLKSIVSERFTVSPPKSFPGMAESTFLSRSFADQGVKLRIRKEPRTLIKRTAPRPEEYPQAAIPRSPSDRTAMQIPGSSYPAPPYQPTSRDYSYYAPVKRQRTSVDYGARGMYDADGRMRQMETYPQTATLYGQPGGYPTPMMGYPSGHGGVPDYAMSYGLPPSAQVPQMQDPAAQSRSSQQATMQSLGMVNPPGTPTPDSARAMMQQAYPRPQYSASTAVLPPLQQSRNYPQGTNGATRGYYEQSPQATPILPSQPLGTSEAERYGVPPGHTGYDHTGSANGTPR
Nature of the assay: split reporter; split-EYFP (BIFC) in living A. nidulans hyphae, fluorescence microscopy; nuclei marked by H2A::mRFP or DAPI; wild type and laeAΔ strains, light or dark.

The target in assay [2] is C-EYFP::VelB (Aspergillus nidulans) (UniProt C8VTS4). The assay is described as above.
The target in assay [3] is T2, N-EYFP::VeA (Aspergillus nidulans) (UniProt C8VTV4).
T2 sequence: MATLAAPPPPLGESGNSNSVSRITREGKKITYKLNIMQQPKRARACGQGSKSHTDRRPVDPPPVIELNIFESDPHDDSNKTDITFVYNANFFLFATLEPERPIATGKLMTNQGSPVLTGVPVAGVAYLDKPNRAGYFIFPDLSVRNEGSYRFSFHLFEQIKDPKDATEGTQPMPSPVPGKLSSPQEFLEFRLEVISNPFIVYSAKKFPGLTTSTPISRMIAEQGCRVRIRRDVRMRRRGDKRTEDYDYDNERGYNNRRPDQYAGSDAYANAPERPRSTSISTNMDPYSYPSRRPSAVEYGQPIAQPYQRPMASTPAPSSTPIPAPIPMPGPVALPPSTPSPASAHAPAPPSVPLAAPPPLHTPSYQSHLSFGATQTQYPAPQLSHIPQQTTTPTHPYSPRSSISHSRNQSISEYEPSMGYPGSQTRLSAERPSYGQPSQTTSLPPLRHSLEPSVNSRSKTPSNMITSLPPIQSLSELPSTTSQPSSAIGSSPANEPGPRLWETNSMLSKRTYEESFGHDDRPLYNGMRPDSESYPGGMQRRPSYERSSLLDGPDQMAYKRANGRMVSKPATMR
The description is as above.

Assay [4] has as its target T3, VosA (yeast two hybrid screen and GST pull-down, unpublished data) (Aspergillus nidulans) (UniProt Q5BBX1).
T3 sequence: T1 sequence
Nature of the assay: two-hybrid; yeast two hybrid screen; unpublished data (Ni et al).

Assay [5] concerns the target T3, VosA (yeast two hybrid screen and GST pull-down, unpublished data) (Aspergillus nidulans). Nature of the assay: pull-down; GST pull-down assay following the two hybrid screen; unpublished data (Ni et al).

Results are given in words; binding and its absence hold for the method and conditions named. For some assays here: In cells and extracts the contact can be indirect. Some results given as binding are weak or reduced against the parent protein; the word gives no strength. For some assays here: Sequences can lack the tags named with a protein.

Turning to “C-EYFP::VelB (from UniProt C8VTS4 1-369)”, the binding result in assay [1], in assay [2] and in assay [3] was “binds” in each case.

B1: VelC (protein, UniProt Q5BBM1 1-524)
chain: MTTHVGPQTTLLHQTGQISALIAGEAVQTCEASSCQMSGTPFQQWTYVTEGRYTNARTHPSDEDRRRQTTVSNPRYLAQEPPRFLLPTAQNNAPTMSQSATYSTLPVQGFPEQNRVLDNRSDPKYGPLPATTGSLAQYSIQRPSTSRNMENAGSSSSYYDAPSCSRGSVGSIGRMNDLDSQYSGSTTAFPSPVHSDSSPIYPAIAPISGYQQQLPIHQRHTTSSMPSGFENLLHHHSTSPSPPPRCASSSSRYRLFIRQQPLAARACGAGDRDRRPVDPPPIIQLLLTEFNPNSEKDRSILQDPRFTVGCLLYPVRNPSYLPGSGSGAGSSDTNTNSNDKSRHESMSSYSQLGINLEDSHATGQSTPLLSGKAFVSPFFVDEEPDPNTAPAHPSSTDDSTYDASPRTVTHRFRNRPLPKPPACFFIFSDLSVRTAGLYRLQFRLMNWGSIEDTGQSMPILAEVWSEPFRVCAAKDFPGMRDSSLLTLRLKELGFVELKTRGQGMGKGRRVGIGSSKVSSRARVE
Regarding B1, the binding entry in assay [4] and in assay [5] was “binds” throughout.
